Taken from: PubChem BioAssay AID652243 (Drosophila RNAi Screening Center, 2013)
In all, the deposit lists about 24,000 reagents; this is an unselected part of those that have a named target and a result. In the full data, 246 (1%) are marked active. 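Plates not normalised; calls are printed but the firefly/Renilla ratio behind them is not deposited; fold cut for lowering reported inconsistently.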 Raw values vary from plate to plate and are shown uncorrected. Entries without a mark were called inactive. Not stated in the record: the amount of reagent.

Aim: 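Fly regulators of androgen-dependent reporter output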 (primary screen)
Cell system: Drosophila S2R+ cells
Knock-down reagent: long dsRNA against Drosophila genes
Timing: 72 h (48 h, then 24 h hormone)
Treatment: synthetic androgen R1881 at 10 nM for 24 h
Detection: 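Firefly light from an androgen-responsive reporter and Renilla control light per well, raw and unnormalised, for each of two replicates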
Scale: firefly reporter light: higher = more light from androgen-responsive reporter; Renilla control light: higher = more constitutive control signal (cell number, transfection)
Active means: 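Across duplicate plates, a knock-down whose log firefly/Renilla ratio shifted a set fold down or up from the GFP/LacZ control mean was a hit; the downward cut appears as both 1.5 and 3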
Meaning of the calls: active = hit: reporter lowered or raised; inactive = no hit

kug (GeneID 40191) [DRSC10911] | firefly reporter light, replicate 1 = 53366; firefly reporter light, replicate 2 = 62166; Renilla control light, replicate 1 = 3.37e5; Renilla control light, replicate 2 = 4.24e5
obst-E (GeneID 33806) [DRSC02128] | firefly reporter light, replicate 1 = 6.03e5; firefly reporter light, replicate 2 = 8.43e5; Renilla control light, replicate 1 = 1.32e6; Renilla control light, replicate 2 = 1.24e6
obst-E (GeneID 33806) [DRSC25834] | firefly reporter light, replicate 1 = 6.09e5; firefly reporter light, replicate 2 = 7.01e5; Renilla control light, replicate 1 = 9.29e5; Renilla control light, replicate 2 = 1.04e6
CG11498 (GeneID 43585) [DRSC14315] | firefly reporter light, replicate 1 = 86750; firefly reporter light, replicate 2 = 1.05e5; Renilla control light, replicate 1 = 1.12e6; Renilla control light, replicate 2 = 1.69e6
CG14817 (GeneID 31145) [DRSC18547] | firefly reporter light, replicate 1 = 3.15e5; firefly reporter light, replicate 2 = 3.45e5; Renilla control light, replicate 1 = 3.13e6; Renilla control light, replicate 2 = 2.58e6
cer (GeneID 37229) [DRSC05992] | firefly reporter light, replicate 1 = 1.01e5; firefly reporter light, replicate 2 = 1.89e5; Renilla control light, replicate 1 = 2.00e6; Renilla control light, replicate 2 = 2.45e6
ssp6 (GeneID 38694) [DRSC08791] | firefly reporter light, replicate 1 = 98040; firefly reporter light, replicate 2 = 78284; Renilla control light, replicate 1 = 2.01e5; Renilla control light, replicate 2 = 1.38e5
ssp6 (GeneID 38694) [DRSC10677] | firefly reporter light, replicate 1 = 2.05e5; firefly reporter light, replicate 2 = 1.66e5; Renilla control light, replicate 1 = 9.49e5; Renilla control light, replicate 2 = 1.06e6
ssp6 (GeneID 38694) [DRSC27709] | firefly reporter light, replicate 1 = 2.13e5; firefly reporter light, replicate 2 = 3.08e5; Renilla control light, replicate 1 = 3.48e5; Renilla control light, replicate 2 = 6.17e5
RpL40 (GeneID 33629) [DRSC00782] | firefly reporter light, replicate 1 = 90504; firefly reporter light, replicate 2 = 96362; Renilla control light, replicate 1 = 5.83e5; Renilla control light, replicate 2 = 5.77e5
stl (GeneID 37619) [DRSC04396] | firefly reporter light, replicate 1 = 4.16e5; firefly reporter light, replicate 2 = 4.96e5; Renilla control light, replicate 1 = 1.16e6; Renilla control light, replicate 2 = 1.25e6
CAHbeta (GeneID 41070) [DRSC14449] | firefly reporter light, replicate 1 = 72611; firefly reporter light, replicate 2 = 50624; Renilla control light, replicate 1 = 2.93e5; Renilla control light, replicate 2 = 2.99e5
CG14644 (GeneID 40536) [DRSC12230] | firefly reporter light, replicate 1 = 41514; firefly reporter light, replicate 2 = 70302; Renilla control light, replicate 1 = 1.20e6; Renilla control light, replicate 2 = 9.91e5
CG13996 (GeneID 33842) [DRSC02328] | firefly reporter light, replicate 1 = 2.61e5; firefly reporter light, replicate 2 = 1.57e5; Renilla control light, replicate 1 = 1.74e6; Renilla control light, replicate 2 = 1.56e6

2 entries already listed, ordered by “Renilla control light, replicate 2”, ascending:
CAHbeta (GeneID 41070) [DRSC14449] | firefly reporter light, replicate 1 = 72611; firefly reporter light, replicate 2 = 50624; Renilla control light, replicate 1 = 2.93e5; Renilla control light, replicate 2 = 2.99e5
stl (GeneID 37619) [DRSC04396] | firefly reporter light, replicate 1 = 4.16e5; firefly reporter light, replicate 2 = 4.96e5; Renilla control light, replicate 1 = 1.16e6; Renilla control light, replicate 2 = 1.25e6
